For this data set, the system named is activated sludge biosolids. As to the kind of experiment: OECD Guideline No. 301F Manometric Respirometry ready biodegradability test.

For the molecule `Nc1ccccc1` [Positive Controls, aniline], for the setting “1st batch run”, the “BD (%) at 10-d Window” value amounted to 115 ± 20% and the “BD (%) at Day 28” value is 137 ± 4%. In addition, under “1st batch run, onset of biodegradation (10% DO2)”, the “Time to Achieve 10% BD” value was found to be 3.0 days. Moreover, the “Time to Achieve 60% BD” value (1st batch run, pass level (60% DO2)) is 5.1 days. Also, under “second batch run”, the “BD at 10-d Window” value is recorded as 81.0 ± 0.9%, the “BD at Day 28” value turned out to be 90.4 ± 3.1%, the “Time to Achieve 10% BD” value turned out to be 1.0 days and the “Time to Achieve 60% BD” value worked out at 3.0 days.

The record behind these values is patent publication US11214533B2 (Dow Global Technologies LLC, priority 2017, dated 2022).
